What all share (assay): Cytotoxicity / antiproliferative activity, MTS test
Format in all cases: cell-based

Experiment [1] concerns HCT 116 p53+/+. Particulars: Homo sapiens, 72-h incubation. The source says: (§1) The human colon carcinoma cell line HCT 116 wild type (p53^+/+) and the human breast carcinoma cell line MCF-7 were obtained from ATCC. The human colon cancer cell line HCT 116, which has a p53 deletion (p53^-/-), was kindly provided by prof. M. Rusin from the Maria Sklodowska-Curie Memorial Cancer Centre and Institute of Oncology in Gliwice, Poland. The glioblastoma cell line U-251 was kindly provided by prof. G. Kramer-Marek from The Institute of Cancer Research in London, United Kingdom. The pancreatic cell line PANC-1 and the human chronic myelogenous leukemia cell line K562 were purchased from Sigma-Aldrich. The adherent cell lines were cultured in Dulbecco’s modified Eagle’s medium (DMEM) containing 12% heat-inactivated fetal bovine serum (all from Sigma-Aldrich) with a mix of two standard antibiotics: 1% v/v of penicillin and streptomycin (Gibco) in 75 cm^2 flasks (Nunc). The suspension cell line K562 was cultured in an RPMI-1640 medium (Sigma-Aldrich), which had been supplemented with 10% heat-inactivated foetal bovine serum and the antibiotics. All of these cell lines were grown under standard conditions at 37 °C in a 5% CO2 humidified atmosphere. Prior to beginning the experiments, all of the cell lines were subjected to routine mycoplasma testing with specific Mycoplasma primers using the PCR technique.
(§2) The exponentially growing cells for all of the cell lines were seeded in 96-well plates (Nunc) at a density of 5000 cells/well and incubated at 37 °C for 24 h. The assay was performed following a 72-h incubation with the various concentrations of the compounds that were being tested. Then, 20 µL of CellTiter 96®AQueous One Solution-MTS (Promega) solution was added to each well (with 100 µL DMEM without phenol red) and incubated for 1 h at 37 °C. The optical densities of the samples were analyzed at 490 nm using a multi-plate reader (Synergy 4, BioTek). The results are expressed as the percentage of the control and were calculated as the inhibitory concentration (IC50) values using GraphPad Prism 7. Each individual compound was tested in triplicate in a single experiment with each experiment being repeated five times.

Experiment [2] deals with HCT 116 p53-/-. The following applies: Homo sapiens, 72-h incubation.
From the text: as §1, §2

Experiment [3] concerns K562. Particulars: Homo sapiens, 72-h incubation.
From the text: as §1, §2

Experiment [4] concerns MCF-7. Particulars: Homo sapiens, MCF7, 72-h incubation.
From the text: as §1, §2

Experiment [5] concerns PANC-1. The following applies: Homo sapiens, 72-h incubation.
From the text: as §1, §2

In experiment [6] the test system is U-251. Particulars: Homo sapiens, 72-h incubation.
From the text: as §1, §2

`CNC(=O)c1ccccc1Sc1ccc2c(/C=C/c3ccccn3)n[nH]c2c1` [Axitinib, axitinib, reference compound]: the IC50 is above 30 µM in experiment [1]; above 30 µM in experiment [2]; 0.1 ± 0.01 µM in experiment [3]; above 30 µM in experiment [4]; above 30 µM in experiment [5]; above 30 µM in experiment [6].

Source of the values: publication PMC7139656, “The Landscape of the Anti-Kinase Activity of the IDH1 Inhibitors” (Cancers, 2020).
